1 molecule from US20240033259A1, “COMPOSITIONS AND METHODS FOR TREATING OR PREVENTING DISEASE ASSOCIATED WITH BETA CORONAVIRUS INFECTION” (priority 2020, published 2024) can be followed below.

One series deals with SARS-CoV-2. It counts as cell-based.
The nature of another series: in vitro. The note with it: African green monkey.

For the molecule `COc1ccc2cc(C(C)C(=O)O)ccc2c1` (stereo not drawn) [Naproxen, 6-methoxy-α-methyl-2-naphthaleneacetic acid], the “inhibition of SARS-CoV-2 / viral yield (in words)” value in the series with SARS-CoV-2 was “did not inhibit SARS-CoV-2”. In addition, the CC50 in the series “in vitro” was above 400 µM.
